Reference: patent publication US8518959B2, “Quinoxaline derivatives as antitumor agents” (Prolexys Pharmaceuticals, Inc., priority 2005, dated 2013)
At least one structure is not confirmed: it was looked up by name or label, or the drawing left a doubt.

Legend:
[1] = system: BJ-TERT/LT/ST/RAS^V12 cells; assay: Nuclear morphology assay; assay type: cell-based, human; details: fluorescence microscopy, 18 hours
From the text: Applicants sought to characterize the type of cell death induced by CPT and erastin in tumorigenic BJ-TERT/LT/ST/RAS^V12 cells. […] To determine whether erastin or CPT induces apoptosis in their system, Applicants monitored the nuclear morphology of CPT- and erastin-treated tumorigenic cells using fluorescence microscopy. […] Since nuclear morphological change is required of apoptotic cells, Applicants conclude that cell death induced by erastin is non-apoptotic. […] Additionally, nuclei remained intact in erastin-treated tumor cells (FIG. 9).
200,000 tumorigenic BJ-TERT/LT/ST/RAS^V12 cells were seeded in 2 mL on glass coverslips in each well of a six-well dish, treated with nothing (NT), 9 μM erastin or 1.1 μM camptothecin (CPT) in growth medium for 18 hours while incubating at 37° C. with 5% CO2. Nuclei were stained with 25 μg/mL Hoechst 33342 (Molecular Probes) and viewed using an oil immersion 100× objective on a fluorescence microscope.

caspase 3 = assay: Western blot for active caspase-3; assay type: cell-based, human; details: BJ-TERT/LT/ST/RAS^V12 cell lysates

CCOc1ccccc1-n1c(C(C)N2CCN(C(=O)COc3ccc(Cl)cc3)CC2)nc2ccccc2c1=O (centres unmarked) [Erastin]
Type of cell death / nuclear morphology [1]: non-apoptotic | Activated (cleaved) caspase 3 (caspase 3): but not erastin-treated
